Binding data for one substance are collected here from PMC9941469.

Chains of the proteins cited; added tags and fusions are not shown.
UniProt P70217: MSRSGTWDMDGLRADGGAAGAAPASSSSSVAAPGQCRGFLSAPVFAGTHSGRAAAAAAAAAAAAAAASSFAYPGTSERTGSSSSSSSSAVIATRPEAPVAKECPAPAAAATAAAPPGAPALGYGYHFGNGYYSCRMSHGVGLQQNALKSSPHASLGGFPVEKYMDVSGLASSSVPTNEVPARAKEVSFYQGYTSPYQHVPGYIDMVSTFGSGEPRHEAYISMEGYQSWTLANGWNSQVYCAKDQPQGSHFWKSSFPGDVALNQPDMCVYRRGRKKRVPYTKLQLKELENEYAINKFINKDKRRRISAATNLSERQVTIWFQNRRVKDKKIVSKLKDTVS
UniProt P97454: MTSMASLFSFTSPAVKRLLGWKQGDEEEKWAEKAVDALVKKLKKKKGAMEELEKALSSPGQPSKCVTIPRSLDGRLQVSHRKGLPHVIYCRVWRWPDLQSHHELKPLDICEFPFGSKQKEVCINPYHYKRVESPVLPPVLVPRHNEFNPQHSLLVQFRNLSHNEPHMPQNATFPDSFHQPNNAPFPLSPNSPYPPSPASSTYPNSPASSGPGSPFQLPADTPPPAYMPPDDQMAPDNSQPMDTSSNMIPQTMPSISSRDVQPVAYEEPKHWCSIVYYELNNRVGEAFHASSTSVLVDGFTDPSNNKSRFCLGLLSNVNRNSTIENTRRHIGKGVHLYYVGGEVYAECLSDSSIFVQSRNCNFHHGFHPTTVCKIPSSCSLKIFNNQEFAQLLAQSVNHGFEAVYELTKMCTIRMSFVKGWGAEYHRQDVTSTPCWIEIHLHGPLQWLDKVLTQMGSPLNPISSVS

These are yes or no findings as the source states them, for the method shown. In cells and extracts the contact can be indirect. Some entries that bind do so weakly or less than the wild type.

This experiment has as its target Hoxd13 (homeobox D13), wild type, mouse (mouse (endogenous in osteoclasts derived from bone marrow monocytes)) (UniProt P70217). Briefly: co-IP; lysates (IP lysis buffer) of osteoclasts derived from Hoxd13 wild or mutant bone marrow monocytes; Co-IP kit (Thermo Scientific Pierce); which protein was precipitated is not told.

With “phosphorylated Smad5 (pSmad5), mouse (from UniProt P97454 1-465)”, the binding entry is reported as “binds”.
